# Experimental data published in PubChem BioAssay AID1745846 (National Center for Advancing Translational Sciences (NCATS), 2022).
# In all, about 1,400 compounds went through this assay and about 30 (2%) were called active. Roughly 15% stayed inconclusive and do not appear here. Calls follow the shape of the dose curve; as a rule, active = well fitted inhibition curve with a large enough effect; inconclusive = small, poorly fitted or top-dose-only effect; inactive = flat fitted curve, though single readings scatter. The list shows a part of the results.
# Assay: Firefly Luciferase Counterscreen for Inhibitors of ATXN expression
# Conditions: luminescence; series mostly up to 57.5 µM; activity change, negative = inhibition: at the top concentration
# Procedure, shortened: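 Recombinant firefly luciferase at 10 nM final in 50 mM Tris pH 7.5, 10 mM MgCl2, 0.05% BSA, 0.01% Tween20 with substrate; compounds up to 57 uM final, 10 min room temperature, end-point luminescence. Buffer-only wells define 100% inhibition.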
# % is scaled to controls: 0 for no effect and ±100 for the full control effect; potency is read from the fitted curve at half-maximal effect.
Compound,"activity change, negative = inhibition",Potency
Clc1ccc(C[n+]2cc(-c3ccccc3)n3c2CCCCC3)c(Cl)c1,inactive: 5.15%,–
CCc1nc2c(OCCOc3ccc(F)cc3)cccn2c1N(C)C(=O)c1ccco1,inactive: -1.23%,–
CCCCC(=O)OCC(=O)C1(O)Cc2c(O)c3c(c(O)c2C(OC2CC(NC(=O)C(F)(F)F)C(O)C(C)O2)C1)C(=O)c1c(OC)cccc1C3=O (stereo not given),inactive: -11.2%,–
CCCCCn1c(=O)c2ccccc2n2c(CCl)nnc12,inactive: -2.32%,–
CN(C)CCCN(C(=O)CCc1ccccc1)c1nc2ccc(Br)cc2s1,inactive: 1.42%,–
CCCCn1c(SCc2ncc(-c3ccccc3)o2)nc2cc(S(N)(=O)=O)ccc21,inactive: -13.5%,–
c1cnc2c(c1)ccc1cccnc12,inactive: -2.17%,–
NC(N)=N/N=C/c1ccc2cccc(OCc3ccccc3)c2n1,inactive: -14.9%,–
CCN(CC)c1nc(-c2ccccn2)nc(-c2ccccc2)c1C#N,inactive: -0.0048%,–
Cc1nn(Cc2c(F)c(F)c(F)c(F)c2F)c(C)c1NC(=O)c1ccc(COc2ccc(Cl)cc2Cl)o1,inactive: -10.4%,–
Cc1ccc(NC(=O)CCC(=O)c2cc(C)sc2C)nc1,inactive: -2.63%,–
CCC1(c2ccccc2)ON(c2c(Br)cccc2Br)C1=O (stereo not given),inactive: -0.992%,–
CCc1nnc(NC(=O)c2ccc(S(=O)(=O)N(C)Cc3ccccc3)cc2)o1,inactive: -15.9%,–
Oc1ccc(Cl)c2cccnc12,inactive: -5.94%,–
CCC1(O)C(=O)OCc2c1cc1n(c2=O)Cc2cc3cc(O)ccc3nc2-1 (stereo not given),inactive: -0.433%,–
CN(Cc1ccccc1)C(=O)c1ccc(NC(=O)C2CCN(C(=O)OC(C)(C)C)CC2)cc1,inactive: -1.39%,–
CN(C)CCNc1ncnc2c1sc1nc(N3CCCC3)c3c(c12)CC(C)(C)OC3,inactive: -3.37%,–
CCCCc1ccc(NC(=O)N2CCN(c3cc(C)nc4ccccc34)CC2)c(C)c1,inactive: 8.86%,–
Oc1c(C(Nc2ccccn2)c2ccccn2)ccc2cccnc12 (stereo not given),inactive: -6.3%,–
COc1ccc(C2CC(c3ccccc3Cl)=NN2c2ccc(S(N)(=O)=O)cc2)cc1 (stereo not given),inactive: -1.62%,–
O=C(Nc1ccc(CN2CCCCC2)cc1)Nc1ccc(Br)cc1Cl,inactive: -1.96%,–
CSCc1nnc(NC(=O)c2ccc(S(=O)(=O)N3CCCCC3C)cc2)o1 (stereo not given),inactive: -18.2%,–
COc1ccc(-c2nn(-c3ccccc3)cc2C(=O)NC(=S)NNC(=O)c2ccncc2)cc1,inactive: -14.7%,–
Cc1sc2cc3c(c(C(=O)c4ccccc4)[n+]2c1C)-c1cccc2cccc-3c12,inactive: -4.87%,–
COc1cccc(/C=N/NC(=O)c2cc3c(OC)cccc3[nH]2)c1O,inactive: -7.79%,–

# Quoted from above for reference:
Compound,"activity change, negative = inhibition",Potency
Clc1ccc(C[n+]2cc(-c3ccccc3)n3c2CCCCC3)c(Cl)c1,inactive: 5.15%,–
CCc1nc2c(OCCOc3ccc(F)cc3)cccn2c1N(C)C(=O)c1ccco1,inactive: -1.23%,–
CCCCC(=O)OCC(=O)C1(O)Cc2c(O)c3c(c(O)c2C(OC2CC(NC(=O)C(F)(F)F)C(O)C(C)O2)C1)C(=O)c1c(OC)cccc1C3=O (stereo not given),inactive: -11.2%,–
CCCCCn1c(=O)c2ccccc2n2c(CCl)nnc12,inactive: -2.32%,–

# (next part)

Compound,"activity change, negative = inhibition",Potency
CC(C)c1ccc2c(c1)C(N1CCNCC1)Cc1ccc(F)cc1S2 (stereo not given),inactive: 10.3%,–
Cc1onc(-c2c(Cl)cccc2Cl)c1C(=O)N/N=C(\N)COc1ccc(Cl)cc1,inactive: 0.402%,–
COc1ccccc1N1CCN(c2ccnc3cc(Cl)ccc23)CC1,inactive: -1.87%,–
Cc1ccccc1N1CCN(Cc2c[nH]c3ccccc23)CC1,inactive: 1.59%,–
COc1cccc(CN(C)C(=O)c2ccc(OCC(=O)Nc3cccc(C(F)(F)F)c3)c(OC)c2)c1,inactive: -4.36%,–
C/C(=N\NC(=O)COc1cccc(C)c1)c1ccc2ccccc2c1O,inactive: -1.16%,–
Cc1cccc(Cn2c(CN3CCN(Cc4ccccc4)CC3)nc3c2c(=O)[nH]c(=O)n3C)c1,inactive: 3.07%,–
Oc1ccc(Cc2ccccc2)c2cccnc12,inactive: -8.95%,–
c1ccc(COc2ncnc3c2ncn3CCCN2CCN(Cc3cccc4ccccc34)CC2)cc1,inactive: -3.81%,–
CCN(CC)c1ccc(/C=C/c2cccc[n+]2C)c(OC)c1,inactive: -12.5%,–
O=C(/C=C\c1ccccc1)NCC(=O)N/N=C/c1ccc(O)cc1O,inactive: -11.2%,–
C=CCc1cccc(/C=N/NC(=O)C(C)Nc2ccc(C)cc2)c1O (stereo not given),inactive: -0.705%,–
CCCS(=O)(=O)c1c(S(=O)(=O)CCC)c2c(C)cccn2c1C(=O)N/N=C/c1cc(O)cc(O)c1,inactive: -9.5%,–
Cc1cccn2c(=O)c3cc(C(=O)NCCc4ccccc4)c(=N)n(CCCn4ccnc4)c3nc12,inactive: -0.864%,–
Cc1ccnc(N2C(=O)c3cccc4c([N+](=O)[O-])ccc(c34)C2=O)c1,inactive: -4.41%,–
CCN(CC)CCn1nc2c3c(cccc3c1=O)-c1ccccc1-2,inactive: 0.924%,–
COC1CC(C)C(OC)c2cc(O)cc(c2O)NC(=O)C(C)=CC=CC(C)C(OC(N)=O)C(C)=CC(C)C1OC (stereo not given),inactive: -11.5%,–
COc1ccc(-n2c(-c3ccc(Cl)cc3)c[n+]3c2CCCCC3)cc1,inactive: 1.22%,–
CCOc1cc(C=C(C(=O)OC)C(=O)OC)ccc1OCc1ccc([N+](=O)[O-])cc1,inactive: -4.35%,–
O=C(CN1CCOCC1)N/N=C/c1c(O)ccc2ccccc12,inactive: -8.22%,–
O=C(Nc1ccc(F)cc1)Nc1cc(OCC(F)(F)F)cc(OCC(F)(F)F)c1,inactive: 0.506%,–
CN1C2CCC1/C(=C\c1ccccc1)C(=O)/C2=C\c1ccccc1,inactive: 3.04%,–
CC1(C(=O)NCc2ccccc2Br)CCN1C(=O)Cc1ccc(-c2ccccc2)cc1 (stereo not given),inactive: -4.03%,–
COc1cccc(/C=N/NC(=O)CNC(=O)C2COc3ccccc3O2)c1O (stereo not given),inactive: -16.3%,–
CCC(=O)NC(c1cc(Cl)c2cccnc2c1O)C(C)C (stereo not given),inactive: -2.16%,–

Compound,"activity change, negative = inhibition",Potency
COc1ccc(CN2CCCN(S(=O)(=O)c3ccc(Br)cc3)CC2)cc1,inactive: -1.76%,–
CC(/C=C/c1ccc2c(c1)OCO2)=N\NC(=O)c1cccc([N+](=O)[O-])c1,inactive: -3.14%,–
NC(=S)N1OC[C@@H]2COc3ccc4ccccc4c3[C@@H]21,inactive: -5.45%,–
Cc1ccc(CN2CCC(c3nc4ccc(Cl)cc4[nH]3)CC2)cc1,inactive: 1.24%,–
CCCC(=O)NC(c1ccc(C)cc1)c1ccc2cccnc2c1O (stereo not given),inactive: -1.75%,–
O=C(Nc1cccc2c1CCCC2)c1cc([N+](=O)[O-])ccc1Cl,inactive: 0.758%,–
Nc1nc(NCCCN2CCOCC2)nc(Nc2ccccc2F)c1[N+](=O)[O-],inactive: 2.91%,–
CN(C)CCNC(=O)c1cccc(-c2cnc3c(NC=O)cc(-c4cccc(C(F)(F)F)c4)cn23)c1,inactive: 0.527%,–
O=C(Nc1nccs1)c1cccc(N2C(=O)c3cccc4c([N+](=O)[O-])ccc(c34)C2=O)c1,inactive: 0.335%,–
COc1ccc(S(=O)(=O)N(C)C)cc1NC(=O)C1CCN(c2ncnc3sc(C)c(C)c23)CC1,inactive: 2.73%,–
C=CCc1cccc(/C=N/NC(=O)CCC(=O)Nc2ccc(F)cc2)c1O,inactive: 2.3%,–
CN(CCOc1ccc(Br)cc1)CC(O)COc1ccc(C#N)cc1 (stereo not given),inactive: -0.934%,–
CCOC(=O)c1cnc(-n2nc(C)cc2C)nc1NNc1nc(-c2ccccc2)cc(-c2ccccc2)n1,inactive: 3.05%,–
O=C(NCc1ccccc1Cl)C1CCCN(C(=O)Nc2ccc(F)cc2)C1 (stereo not given),inactive: -2.7%,–
O=C1/C(=C/c2ccncc2)CCC/C1=C\c1ccncc1,inactive: -3.03%,–
O=C(Nc1ccc(Oc2ccc(NC(=O)Nc3ccc([N+](=O)[O-])cc3)cc2)cc1)Nc1ccc([N+](=O)[O-])cc1,inactive: 1.02%,–
Cc1ccc2nc(NC(=O)/C=C/c3ccc4c(c3)OCO4)sc2c1,inactive: 1.77%,–
Cc1nc(N)nc(N)c1/C=C/C(C)(C)c1ccc(Cl)cc1,inactive: 3.13%,–
O=C(NCCc1csc(-c2cccnc2)n1)c1cccc(Cl)c1,inactive: -18.5%,–
CCOC(=O)c1c(-n2cccc2)sc2c1CCCC2=O,inactive: -2.33%,–
O=C(/C=C/Nc1ccc(S(=O)(=O)Nc2ncccn2)cc1)c1ccc(Cl)c(Cl)c1,inactive: 0.0049%,–
CC(NC(=O)Nc1cccc([N+](=O)[O-])c1)(C(F)(F)F)C(F)(F)F,inactive: 2.38%,–
Cc1ccc(C)c(NC(=O)CSc2n[nH]c(-c3ccccn3)n2)c1,inactive: -10.6%,–
COc1cccc2c1C(=O)C=C(C)C2=O,inactive: -9.52%,–
CCN(CC(=O)NC(C)(C)C)Cc1nc2c(Br)cc(Br)cc2c(=O)[nH]1,inactive: -13.1%,–

Compound,"activity change, negative = inhibition",Potency
Cn1c(CO)cnc1S(=O)(=O)Cc1ccc([N+](=O)[O-])cc1,inactive: 3.21%,–
CCn1cc(C(=O)NCCCN2CCCC(C)C2)c(=O)c2cc(S(=O)(=O)N3CCc4ccccc4C3)ccc21 (stereo not given),inactive: 2.04%,–
CN(CC(=O)Nc1cccc(F)c1)CC(=O)Nc1cccc2ccccc12,inactive: -3.09%,–
Cc1ccc(Cc2cnc(NC(=O)/C(C#N)=C/c3ccc(-c4cccc([N+](=O)[O-])c4)o3)s2)cc1,inactive: 1.02%,–
Oc1ccccc1C(Nc1nccs1)c1ccc2cccnc2c1O (stereo not given),inactive: -4.63%,–
CCn1c(C)cc(C(=O)COC(=O)c2ccccc2[N+](=O)[O-])c1C,–,active: 17.8 nM
CCN1CCN(c2cc(C(C)C)nc3c(-c4ccccc4)c(C)nn23)CC1,inactive: 0.19%,–
Cc1nc(N=C(N)N)nc2c(C)cccc12,inactive: -0.148%,–
CC[C@H]1CN2CCc3cc(OC)c(OC)cc3C2C[C@@H]1C[C@H]1NCCc2cc(OC)c(OC)cc21 (stereo not given in full),inactive: 3.56%,–
Oc1ccc2ccccc2c1/C=C/c1ccc2c(Br)cc(Br)c(O)c2n1,inactive: -15.1%,–
O=C(CSc1n[nH]c(-c2ccccn2)n1)Nc1ccc(F)cc1,inactive: -11.7%,–
O=C(Nc1ccc(NC(=O)c2ccc(Cl)cc2Cl)cc1)c1cccs1,inactive: 2.51%,–
CCSc1nc2ccccc2n1C(=O)/C=C\c1ccc(OC)c(OC)c1,inactive: -11.1%,–
CCc1cc(C)cc(OCCNC(=O)c2cncc(Br)c2)c1,inactive: -3.17%,–
CN(C)CCCN(C(=O)c1ccc(S(=O)(=O)N(C)Cc2ccccc2)cc1)c1nc2c(F)cccc2s1,inactive: 1.45%,–
COc1ccccc1-n1c(-c2ccccc2)c[n+]2c1CCc1ccccc1-2,inactive: 0.393%,–
COC1C=CC=C(C)C(=O)NC2=CC(=O)C(N)=C(CC(C)CC(OC)C(O)C(C)C=C(C)C1OC(N)=O)C2=O (stereo not given),inactive: -4.17%,–
CCOC(=O)C1CCN(C(=O)c2c(C)oc3c2C(=O)c2ccccc2C3=O)CC1,inactive: -2.65%,–
O=c1cc(Nc2ccc3c(c2)OCCO3)[nH]c(=O)n1-c1ccc(Br)cc1,inactive: -10.6%,–
CC(=O)Nc1cccc(-c2ccnc3c2CC(C)(C(=O)Nc2ccc(Cl)cc2)O3)c1 (stereo not given),inactive: -2.94%,–
O=[N+]([O-])c1c(Nc2ccccn2)cc(Cl)c2nonc12,inactive: -10.4%,–
CCc1nc2c(OCCOc3ccc(F)cc3)cccn2c1N(C=O)Cc1ccc(OC)cc1,inactive: -0.926%,–
CN(CC(=O)NCc1ccc(F)cc1)CC(=O)Nc1ccc(Cl)c(C(F)(F)F)c1,inactive: -3.92%,–
COc1cccc(C(NC(C)=O)c2ccc3cccnc3c2O)c1 (stereo not given),inactive: 0.801%,–
CN(C)CCOc1nc(-c2ccccc2)nc2c1oc1ccccc12,inactive: -2.62%,–
